# Measured values published in PubChem BioAssay AID493014 (National Center for Advancing Translational Sciences (NCATS), 2011).
# Out of some 340,000 compounds screened, about 170 (0.05%) were called active. This list was built around the results that the source calls inconclusive (neither active nor inactive); the mix of calls is not that of the screen. Calls follow the shape of the dose curve; as a rule, active = well fitted inhibition curve with a large enough effect in the signal ratio, with a control signal flat (not every such curve was filed as active); inconclusive = small, poorly fitted or top-dose-only effect, or effect the other way, or a change in a side signal; inactive = flat fitted curve, though single readings scatter; the % refers to the signal ratio. Potencies beside an inconclusive call are fits to weak or partial responses and may not hold up.
# Experiment: qHTS Assay to Find Inhibitors of Chronic Active B-Cell Receptor Signaling;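 as to activity change, negative = inhibition: plate controls were basal doxycycline-induced cells for no effect and cells given 10 µM MG132 for full effect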
# Details: ABC-DLBCL IkBa-CBG/CBR reporter, luminescence ratio (green luciferase fused to IkBa over red control in TMD8 lymphoma cells), 4 h; activity change, negative = inhibition: at 46.1 µM (top of the series)
# Procedure, shortened: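 Compounds up to 46 uM were incubated four hours with TMD8 cells whose green CBG68 luciferase is fused to IkappaBalpha; red CBR luminescence normalised the signal, and concentration-effect curves were fitted to fusion, red and ratio data.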
# Potency is read from the fitted curve at half-maximal effect.
Compound,Potency,"activity change, negative = inhibition"
Nc1c(C(=O)NCc2ccco2)c2nc3ccccc3nc2n1CCN1CCOCC1,"inconclusive: 20.6 µM [rising, single point]",–
O=C(c1ccco1)N1CCC(c2nc3c(nnn3Cc3c(Cl)cccc3Cl)c(=O)[nH]2)CC1,–,inconclusive: -1.23%
C[C@H]1C[C@@H](C)C(=O)[C@@H]([C@H](O)CC2CC(=O)NC(=O)C2)C1,–,inconclusive: 14.5%
O=C(Nc1nnc(SCc2c(Cl)cccc2Cl)s1)C1CCCO1 (configuration not stated),–,inconclusive: 8.35%
Cc1ccc(Cn2nnnc2CN2CCC(n3nnc4cc(C)ccc43)CC2)cc1,–,inactive
O=[N+]([O-])c1ccccc1-c1cc(-c2ccccc2)cc(-c2ccccc2)[n+]1Cc1ccccc1Cl,–,inconclusive: 13.9%
O=[N+]([O-])c1ccc(N2CCNCC2)c2ncccc12,–,inconclusive: 2.39%
CCCCCn1c(N)c(C(=O)NCc2cccs2)c2nc3ccccc3nc21,–,inactive
CN(CCOc1ccc(Cl)cc1)C(=O)c1ccc(S(=O)(=O)N2CCOCC2)cc1,–,inconclusive: -2.62%
COC(=O)C1=C(c2ccc(F)cc2OCc2ccccc2)C[C@@H]2CC[C@H]1N2C(=O)NCc1ccc(Cl)cc1,–,inconclusive: 1.91%
CCOC(=O)c1ncn2c1CN(C)C(=O)c1cc(F)ccc1-2,–,inactive
Cc1nonc1OCCNc1ccc([N+](=O)[O-])c2cccnc12,–,inactive
Oc1ccc(-[n+]2c(-c3ccccc3)cc(-c3ccccc3)cc2-c2ccccc2)cc1,"inconclusive: 18.4 µM [falling, partial curve, poor fit]",–
Nc1ccc(S(=O)(=O)N2CCCCC2c2cccnc2)cc1 (configuration not stated),–,inconclusive: 13.9%
O=C(Nc1ccc2c(c1)OCCO2)c1cccn(Cc2cccc(F)c2)c1=O,–,inconclusive: -0.355%
O=C(c1cccn2c(=O)c3cc(Br)ccc3nc12)N1CCC2(CC1)OCCO2,–,inconclusive: 16.3%
COC(=O)C1=C(c2ccc(-c3ccccc3)c(F)c2)C[C@@H]2CC[C@H]1N2C(=O)NCc1ccc(F)cc1,–,inconclusive: -9.05%
O=C1c2cccc3cccc(c23)C(=O)N1/N=C/c1c(O)n(-c2ccccc2)c(=O)[nH]c1=O,–,inactive
C/C(=N\N1CCCCCC1)c1c(O)n(C)c(=O)n(C)c1=O,–,inconclusive: 1.2%
Cn1c(O)c(C(=Nc2ccc(F)cc2)c2ccccc2)c(=O)n(C)c1=O,–,inconclusive: 6.68%
CCCCn1c(O)c(/C(CC)=N/N2CCCCC2c2cccnc2)c(=O)[nH]c1=S (configuration not stated),–,inactive

Compound,Potency,"activity change, negative = inhibition"
O=P(Nc1cccc(Cl)c1)(Oc1ccccc1)Oc1ccccc1,–,inconclusive: -14.7%
CCOC(=O)c1cc(CC)sc1/N=C/C1C(=O)NC(=S)NC1=O,–,inactive
Nc1c(C(=O)NCCc2ccccc2)c2nc3ccccc3nc2n1CCN1CCOCC1,"inconclusive: 7.31 µM [rising, partial curve]",–
CCN(Cc1ccccc1)C(=O)Cn1c(=O)oc2ccccc21,–,inconclusive: -4.91%
CCOP(=O)(C#Cc1ccccc1)C(O)c1ccc(Br)cc1 (configuration not stated),–,inactive
Nc1ccccc1C(=O)OCC(=O)N1CCc2ccccc21,"inconclusive: 29.1 µM [rising, single point]",–
CCC(=NC1CC1)c1c(O)n(C2CCCCC2)c(=O)[nH]c1=O,–,inactive
COc1cccc(O)c1CN1CCCC(C(=O)c2ccccc2SC)C1 (configuration not stated),"inconclusive: 14.1 µM [falling, partial curve, poor fit]",–
O=C1/C(=C/c2ccncc2)N2CCC1CC2,–,inconclusive: -0.18%
COC(=O)C1=C(c2ccc(OCc3ccccc3)cc2)C[C@@H]2CC[C@H]1N2C(=O)NCc1ccc([N+](=O)[O-])cc1,–,inactive
NC(=O)CSP(=O)(c1ccccc1)c1ccccc1,–,inactive
O=C(O)C1C2CCC(O2)C1C(=O)NC1CCCCC1 (configuration not stated),–,inconclusive: 4.45%
CCCOC(=O)COc1cc(C)cc2oc(=O)c3c(c12)CCC3,–,inactive
Cc1ccc2nc(N3CCN(C)CC3)[nH]c2c1,–,inconclusive: 3.19%
CC(=O)Nc1ccccc1C(=O)OCC(=O)c1ccc2ccccc2c1,–,inactive
c1ccc2sc(C3CCCNC3)nc2c1 (configuration not stated),"inconclusive: 1.64 µM [activator, full curve, poor fit]",–
COc1cccc(-c2nc3ccc(N4CCN(C)CC4)cc3[nH]2)c1,"inconclusive: 2 µM [rising, full curve]",–
NC(=O)Nc1ccc(C(=O)OCC(=O)Nc2ccc(Cl)cc2C(=O)c2ccccc2)cc1,–,inconclusive: -1.53%
Cc1ccc(N2C(=O)/C(=C/c3ccc(CN(CCC#N)S(C)(=O)=O)o3)C(=O)NC2=S)cc1,–,inactive
COc1ccc(C2C(C#N)=C(N)Oc3c2c(=O)oc2ccccc32)cc1Cn1cc([N+](=O)[O-])cn1 (configuration not stated),"inconclusive: 14.1 µM [falling, partial curve, poor fit]",–
Cn1c(O)c(C(=N)COc2ccccc2)c(=O)n(C)c1=O,–,inactive

Compound,Potency,"activity change, negative = inhibition"
CSc1ccc(CN2CCN(C(=O)COc3ccc(C)cc3)CC2)cc1,–,inactive
c1ccc(-c2cc(-c3ccccc3)[n+](-c3ccccc3)c(-c3ccccc3)c2)cc1,–,inconclusive: 25.7%
O=C(N/N=C/c1c(O)n(CCC2=CCCCC2)c(=O)[nH]c1=O)c1ccccc1,"inconclusive: 20.6 µM [falling, partial curve]",–
Cc1c(C(=O)N2CCC3(CC2)OCCO3)oc2ccc(S(=O)(=O)N3CCCCC3)cc12,–,inconclusive: 0.983%
O=c1[nH]c(=O)n(Cc2ccco2)c(O)c1C=NCc1ccc2c(c1)OCO2,–,inconclusive: 6.49%
NS(=O)(=O)c1ccc(N2CCNCC2)cc1,–,inconclusive: -0.477%
O=C1NC(c2cccnc2)Nc2sc3c(c21)CCCC3 (configuration not stated),–,inconclusive: 2.05%
CCN(CC)C(=O)Oc1ccc2ccccc2c1Cl,–,inconclusive: 12.2%
CCCC(=O)NC(Oc1ccc(OC)cc1)C(Cl)(Cl)Cl (configuration not stated),–,inconclusive: 13.3%
Cc1cccc(NS(=O)(=O)c2ccc(C(=O)N3CCN(c4ccccc4O)CC3)cc2)c1C,–,inconclusive: -2.57%
CCCCCCn1c(O)c(C=Nc2c(C)n(C)n(-c3ccccc3)c2=O)c(=O)[nH]c1=O,–,inconclusive: 3.96%
C=CCn1c(O)c(C(CC)=NCc2ccc3c(c2)OCO3)c(=O)[nH]c1=O,–,inconclusive: -10.4%
CC(C)=CCc1c(O)cc2c(c1O)C(=O)CC(c1ccc(O)cc1)O2 (configuration not stated),–,inconclusive: -17.7%
Cc1cccc(N2C(=O)/C(=C/N3CCN(C(=O)c4ccco4)CC3)C(=O)NC2=S)c1,–,inactive
COc1ccccc1/C=N/N=C(/N)N[N+](=O)[O-],"inconclusive: 29.1 µM [falling, single point]",–
C[C@H]1CCCC(=O)CCC/C=C/c2cc(O)cc(O)c2C(=O)O1,"inconclusive: 20 µM [falling, partial curve, poor fit]",–
CC(C)COC(=O)c1ccccc1C(=O)OCC(C)C,–,inconclusive: -1.8%
CCc1ccc(N2C(=O)NC(=O)/C(=C\C=C\c3ccco3)C2=O)cc1,–,inactive
CN1CCN(CC(=O)Nc2ccc([N+](=O)[O-])cc2C(=O)c2ccccc2)CC1,–,inconclusive: 8.13%
Cc1cc(O)c2c(c1)OC(C)(C)C1=C2CC(C)CC1 (configuration not stated),–,inconclusive: 7%
NC(=O)c1ccc(C(=O)Nc2ccc([As](=O)(O)O)cc2)cc1,"inconclusive: 22.4 µM [falling, partial curve]",–

# Compounds above that have two or more sulfur atoms:
Compound,Potency,"activity change, negative = inhibition"
O=C(Nc1nnc(SCc2c(Cl)cccc2Cl)s1)C1CCCO1 (configuration not stated),–,inconclusive: 8.35%
CCOC(=O)c1cc(CC)sc1/N=C/C1C(=O)NC(=S)NC1=O,–,inactive
Cc1ccc(N2C(=O)/C(=C/c3ccc(CN(CCC#N)S(C)(=O)=O)o3)C(=O)NC2=S)cc1,–,inactive

# (listing goes on)

Compound,Potency,"activity change, negative = inhibition"
Nc1ccc2nonc2c1[N+](=O)[O-],–,inactive
COC(=O)C1C(O)C(C)C(O)C(C)/C=C\C=C(/C)C(=O)Nc2c(C)c(OC(C)=O)c3c(c2O)C(=O)C(C)=C2OCOC(=C23)/C(C)=C/C(C)(O)C(O)C(C)C1O (configuration not stated),–,inconclusive: 14%
N#Cc1ccccc1Cn1cc(C(=O)c2ccccc2F)c2ccccc21,–,inactive
C/C(CC(c1ccccc1)c1c(O)c2ccccc2oc1=O)=N\Nc1ccc([N+](=O)[O-])cc1[N+](=O)[O-] (configuration not stated),–,inactive
c1cc2c(cc1[C@H]1OC[C@H]3[C@@H]1CO[C@@H]3c1ccc3c(c1)OCO3)OCO2,–,inconclusive: 0.438%
O=C1C=C2C=C[C@@H]3CC2(O1)[C@H]1CCCCN31,–,inactive
CN(C)CCCNCC(=O)Nc1ccc(Cl)cc1C(=O)c1ccccc1,–,inactive
O=C(NC(C(Cl)Cl)N1CCOCC1)c1ccccc1 (configuration not stated),–,inactive
Clc1cccc(CNCCc2c[nH]c3ccccc23)c1,–,inactive
O=C1NC(=O)C(=Cc2cc(Cl)ccc2OCc2ccc(C(=O)O)cc2)C(=O)N1,"inconclusive: 31.6 µM [cytotoxic, single point]",–
Fc1ccc(-[n+]2nc(Nc3ccccc3)sc2-c2c(Cl)cccc2Cl)cc1,–,inconclusive: 15.1%
C=CCN1C(=O)NC(=O)/C(=C/c2ccoc2)C1=O,–,inactive
CCOC(=O)C(O)(c1ccc(NC(=S)NC(=O)c2ccc(Cl)cc2Cl)cc1)C(F)(F)F (configuration not stated),–,inconclusive: 5.07%
CNCCc1c[nH]c2ccccc12,–,inconclusive: 3.59%
CCC1=C(C)C(N2CCOCC2)=NP(N2CCOCC2)(N2CCOCC2)=N1,–,inactive
O=c1[nH]c(CN2CCNCC2)nc2ccccc12,"inconclusive: 18.4 µM [falling, single point]",–
CC(C)n1c(O)c(C2c3cc(Cl)ccc3Oc3[nH]c(=O)n(C(C)C)c(=O)c32)c(=O)[nH]c1=O (configuration not stated),"inconclusive: 35.5 µM [rising, single point]",–
O=C(CCn1c(=O)oc2ccccc21)NCCCN1CCN(c2ccc(F)cc2)CC1,–,inconclusive: -4.19%
CN(C)C(=O)Oc1ccc2c(c1)O/C(=C\c1cccc([N+](=O)[O-])c1)C2=O,–,inconclusive: 8.59%
